Drawing on publication doi:10.1101/2022.02.23.481653, this text covers binding for seven molecules.

The target of assay [1] is SEPT2-β10 and SEPT2-β11 (wild-type SEPT2 fused to GFP strand β10 or β11) (human) (UniProt Q15019). As to the kind of experiment: split reporter.
Assay [2] has as its target T1, SEPT7 (endogenous, U2OS) (human (endogenous in U2OS)) (UniProt Q16181).
T1 sequence: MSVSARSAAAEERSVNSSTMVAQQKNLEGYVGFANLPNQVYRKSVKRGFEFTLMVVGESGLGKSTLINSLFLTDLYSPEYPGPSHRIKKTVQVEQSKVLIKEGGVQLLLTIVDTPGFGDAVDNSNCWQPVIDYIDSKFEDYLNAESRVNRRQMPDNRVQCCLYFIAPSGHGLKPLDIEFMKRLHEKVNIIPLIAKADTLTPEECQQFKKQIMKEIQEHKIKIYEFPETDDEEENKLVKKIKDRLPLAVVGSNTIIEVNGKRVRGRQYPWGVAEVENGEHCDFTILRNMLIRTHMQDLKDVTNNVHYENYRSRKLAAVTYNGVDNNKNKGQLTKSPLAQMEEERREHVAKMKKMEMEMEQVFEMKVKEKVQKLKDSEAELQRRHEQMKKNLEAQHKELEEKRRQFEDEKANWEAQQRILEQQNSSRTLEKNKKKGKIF
As to the kind of experiment: native gel or EMSA.

Assay [3] deals with T2, SEPT7 (endogenous, U2OS) (human (endogenous in U2OS)), Q16181.
T2 chain: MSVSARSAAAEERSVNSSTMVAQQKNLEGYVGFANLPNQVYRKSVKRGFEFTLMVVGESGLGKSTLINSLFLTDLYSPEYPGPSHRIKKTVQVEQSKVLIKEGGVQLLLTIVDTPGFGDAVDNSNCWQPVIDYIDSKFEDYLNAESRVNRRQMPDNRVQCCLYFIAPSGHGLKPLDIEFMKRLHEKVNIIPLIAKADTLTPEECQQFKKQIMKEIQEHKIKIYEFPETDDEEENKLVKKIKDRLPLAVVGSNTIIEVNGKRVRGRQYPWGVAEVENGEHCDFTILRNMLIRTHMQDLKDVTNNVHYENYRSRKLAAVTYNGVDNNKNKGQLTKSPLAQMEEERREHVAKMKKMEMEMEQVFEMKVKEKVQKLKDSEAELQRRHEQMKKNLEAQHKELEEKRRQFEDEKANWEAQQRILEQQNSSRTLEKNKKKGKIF
Briefly: native gel or EMSA. The conditions noted are these: remark: other sources report otherwise.

For assay [4], the target named is T3, β10-SEPT7 and β11-SEPT7 (wild-type SEPT7 fused to GFP strand β10 or β11) (human) (UniProt Q16181).
T3 sequence: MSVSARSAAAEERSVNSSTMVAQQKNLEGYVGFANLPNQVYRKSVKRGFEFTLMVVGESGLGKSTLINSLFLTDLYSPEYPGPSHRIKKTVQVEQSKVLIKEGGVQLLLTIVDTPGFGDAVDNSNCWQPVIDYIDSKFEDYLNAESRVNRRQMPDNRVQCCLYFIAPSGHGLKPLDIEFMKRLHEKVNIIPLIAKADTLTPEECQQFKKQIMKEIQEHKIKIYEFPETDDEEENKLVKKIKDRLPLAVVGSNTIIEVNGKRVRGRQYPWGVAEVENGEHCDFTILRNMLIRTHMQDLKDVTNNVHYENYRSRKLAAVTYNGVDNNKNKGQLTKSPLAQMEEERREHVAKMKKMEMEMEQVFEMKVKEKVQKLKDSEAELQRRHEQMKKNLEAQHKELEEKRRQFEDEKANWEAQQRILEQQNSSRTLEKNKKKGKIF
As to the kind of experiment: split reporter.

Assay [5] addresses T4, β10-SEPT7Gmut2 and β11-SEPT7Gmut2 (SEPT7 H279D) (human) (UniProt Q16181).
T4 sequence: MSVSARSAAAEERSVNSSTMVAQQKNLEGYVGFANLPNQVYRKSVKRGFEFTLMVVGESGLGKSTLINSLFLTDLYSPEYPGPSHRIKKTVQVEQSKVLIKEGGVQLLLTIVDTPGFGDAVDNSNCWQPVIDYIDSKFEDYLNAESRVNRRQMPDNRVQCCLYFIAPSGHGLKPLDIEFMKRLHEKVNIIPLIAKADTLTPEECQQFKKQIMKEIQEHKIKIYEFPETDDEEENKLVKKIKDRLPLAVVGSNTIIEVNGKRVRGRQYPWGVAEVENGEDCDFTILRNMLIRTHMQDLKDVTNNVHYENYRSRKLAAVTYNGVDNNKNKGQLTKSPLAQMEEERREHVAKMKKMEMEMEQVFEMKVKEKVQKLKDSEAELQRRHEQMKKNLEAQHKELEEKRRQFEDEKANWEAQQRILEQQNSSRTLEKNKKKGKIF
As to the kind of experiment: split reporter.

For assay [6], the target named is T5, β10-SEPT7 and β11-SEPT7 (wild-type SEPT7 fused to GFP strand β10 or β11) (human), Q16181.
T5 chain: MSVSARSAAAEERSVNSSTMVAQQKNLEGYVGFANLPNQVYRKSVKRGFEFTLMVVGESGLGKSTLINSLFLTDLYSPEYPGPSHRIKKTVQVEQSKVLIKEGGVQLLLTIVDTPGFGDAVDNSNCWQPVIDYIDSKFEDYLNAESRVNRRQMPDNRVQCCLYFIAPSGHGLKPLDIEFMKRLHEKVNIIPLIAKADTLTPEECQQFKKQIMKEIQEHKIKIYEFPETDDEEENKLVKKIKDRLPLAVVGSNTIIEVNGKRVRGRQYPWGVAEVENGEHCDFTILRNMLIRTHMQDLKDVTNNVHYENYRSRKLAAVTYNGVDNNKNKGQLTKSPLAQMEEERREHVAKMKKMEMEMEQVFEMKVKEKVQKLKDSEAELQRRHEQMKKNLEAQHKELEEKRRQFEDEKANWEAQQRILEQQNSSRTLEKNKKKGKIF
Briefly: split reporter. The conditions noted are these: remark: other sources report otherwise.

Assay [7] has as its target T6, msfGFP-SEPT7Gmut1 (SEPT7 W269A, H279D) (human) (UniProt Q16181).
T6 sequence: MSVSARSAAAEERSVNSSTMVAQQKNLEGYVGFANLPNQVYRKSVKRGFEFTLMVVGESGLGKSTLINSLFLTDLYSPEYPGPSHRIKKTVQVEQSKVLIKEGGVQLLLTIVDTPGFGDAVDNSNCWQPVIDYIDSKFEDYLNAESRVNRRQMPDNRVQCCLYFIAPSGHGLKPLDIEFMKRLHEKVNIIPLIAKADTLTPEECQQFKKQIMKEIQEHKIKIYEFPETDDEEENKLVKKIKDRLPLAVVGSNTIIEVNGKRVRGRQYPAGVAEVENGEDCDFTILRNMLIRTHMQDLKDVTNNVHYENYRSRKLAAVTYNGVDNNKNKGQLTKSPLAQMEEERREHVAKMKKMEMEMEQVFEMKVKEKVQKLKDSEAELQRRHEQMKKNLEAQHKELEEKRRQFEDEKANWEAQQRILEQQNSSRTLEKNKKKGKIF
As to the kind of experiment: native gel or EMSA.

No constants are given. Whether binding was seen depends on the method and setting. For part of these data: In cells and extracts the contact can be indirect. Some binding calls cover weakened binding; strength is not graded here. Tags and fused reporters may be left off the sequences shown.

B1: SEPT2-β10 and SEPT2-β11 (wild-type SEPT2 fused to GFP strand β10 or β11) (protein, UniProt Q15019 1-361)
chain: MSKQQPTQFINPETPGYVGFANLPNQVHRKSVKKGFEFTLMVVGESGLGKSTLINSLFLTDLYPERVIPGAAEKIERTVQIEASTVEIEERGVKLRLTVVDTPGYGDAINCRDCFKTIISYIDEQFERYLHDESGLNRRHIIDNRVHCCFYFISPFGHGLKPLDVAFMKAIHNKVNIVPVIAKADTLTLKERERLKKRILDEIEEHNIKIYHLPDAESDEDEDFKEQTRLLKASIPFSVVGSNQLIEAKGKKVRGRLYPWGVVEVENPEHNDFLKLRTMLITHMQDLQEVTQDLHYENFRSERLKRGGRKVENEDMNKDQILLEKEAELRRMQEMIARMQAQMQMQMQGGDGDGGALGHHV
As to B1, the binding result in assay [1] is listed as “binds”.

B2: SEPT2NCmut-msfGFP (SEPT2 F20D, V27D) (protein, UniProt Q15019 1-361)
chain: MSKQQPTQFINPETPGYVGDANLPNQDHRKSVKKGFEFTLMVVGESGLGKSTLINSLFLTDLYPERVIPGAAEKIERTVQIEASTVEIEERGVKLRLTVVDTPGYGDAINCRDCFKTIISYIDEQFERYLHDESGLNRRHIIDNRVHCCFYFISPFGHGLKPLDVAFMKAIHNKVNIVPVIAKADTLTLKERERLKKRILDEIEEHNIKIYHLPDAESDEDEDFKEQTRLLKASIPFSVVGSNQLIEAKGKKVRGRLYPWGVVEVENPEHNDFLKLRTMLITHMQDLQEVTQDLHYENFRSERLKRGGRKVENEDMNKDQILLEKEAELRRMQEMIARMQAQMQMQMQGGDGDGGALGHHV
As for B2, the binding result in assay [2] is “binds”.

B3: SEPT2-msfGFP (wild type), Q15019 1-361 (protein)
chain: MSKQQPTQFINPETPGYVGFANLPNQVHRKSVKKGFEFTLMVVGESGLGKSTLINSLFLTDLYPERVIPGAAEKIERTVQIEASTVEIEERGVKLRLTVVDTPGYGDAINCRDCFKTIISYIDEQFERYLHDESGLNRRHIIDNRVHCCFYFISPFGHGLKPLDVAFMKAIHNKVNIVPVIAKADTLTLKERERLKKRILDEIEEHNIKIYHLPDAESDEDEDFKEQTRLLKASIPFSVVGSNQLIEAKGKKVRGRLYPWGVVEVENPEHNDFLKLRTMLITHMQDLQEVTQDLHYENFRSERLKRGGRKVENEDMNKDQILLEKEAELRRMQEMIARMQAQMQMQMQGGDGDGGALGHHV
Regarding B3, the binding entry in assay [3] is recorded as “binds”.

B4: SEPT9_i1-β10 and SEPT9_i1-β11 (wild-type SEPT9 isoform 1 fused to GFP strand β10 or β11) (protein, UniProt Q9UHD8-1 1-586)
chain: MKKSYSGGTRTSSGRLRRLGDSSGPALKRSFEVEEVETPNSTPPRRVQTPLLRATVASSTQKFQDLGVKNSEPSARHVDSLSQRSPKASLRRVELSGPKAAEPVSRRTELSIDISSKQVENAGAIGPSRFGLKRAEVLGHKTPEPAPRRTEITIVKPQESAHRRMEPPASKVPEVPTAPATDAAPKRVEIQMPKPAEAPTAPSPAQTLENSEPAPVSQLQSRLEPKPQPPVAEATPRSQEATEAAPSCVGDMADTPRDAGLKQAPASRNEKAPVDFGYVGIDSILEQMRRKAMKQGFEFNIMVVGQSGLGKSTLINTLFKSKISRKSVQPTSEERIPKTIEIKSITHDIEEKGVRMKLTVIDTPGFGDHINNENCWQPIMKFINDQYEKYLQEEVNINRKKRIPDTRVHCCLYFIPATGHSLRPLDIEFMKRLSKVVNIVPVIAKADTLTLEERVHFKQRITADLLSNGIDVYPQKEFDEDSEDRLVNEKFREMIPFAVVGSDHEYQVNGKRILGRKTKWGTIEVENTTHCEFAYLRDLLIRTHMQNIKDITSSIHFEAYRVKRLNEGSSAMANGMEEKEPEAPEM
With B4, the binding result in assay [4] and in assay [5] was “binds” in each case.

B5: SEPT9_i3-β10 and SEPT9_i3-β11 (wild-type SEPT9 isoform 3 fused to GFP strand β10 or β11) (protein, UniProt Q9UHD8-2 1-568)
chain: MERDRISALKRSFEVEEVETPNSTPPRRVQTPLLRATVASSTQKFQDLGVKNSEPSARHVDSLSQRSPKASLRRVELSGPKAAEPVSRRTELSIDISSKQVENAGAIGPSRFGLKRAEVLGHKTPEPAPRRTEITIVKPQESAHRRMEPPASKVPEVPTAPATDAAPKRVEIQMPKPAEAPTAPSPAQTLENSEPAPVSQLQSRLEPKPQPPVAEATPRSQEATEAAPSCVGDMADTPRDAGLKQAPASRNEKAPVDFGYVGIDSILEQMRRKAMKQGFEFNIMVVGQSGLGKSTLINTLFKSKISRKSVQPTSEERIPKTIEIKSITHDIEEKGVRMKLTVIDTPGFGDHINNENCWQPIMKFINDQYEKYLQEEVNINRKKRIPDTRVHCCLYFIPATGHSLRPLDIEFMKRLSKVVNIVPVIAKADTLTLEERVHFKQRITADLLSNGIDVYPQKEFDEDSEDRLVNEKFREMIPFAVVGSDHEYQVNGKRILGRKTKWGTIEVENTTHCEFAYLRDLLIRTHMQNIKDITSSIHFEAYRVKRLNEGSSAMANGMEEKEPEAPEM
For the molecule B5, the binding entry in assay [4] and in assay [5] was “binds” each time.

B6: β10-SEPT7 and β11-SEPT7 (wild-type SEPT7 fused to GFP strand β10 or β11), Q16181 1-437 (protein)
chain: MSVSARSAAAEERSVNSSTMVAQQKNLEGYVGFANLPNQVYRKSVKRGFEFTLMVVGESGLGKSTLINSLFLTDLYSPEYPGPSHRIKKTVQVEQSKVLIKEGGVQLLLTIVDTPGFGDAVDNSNCWQPVIDYIDSKFEDYLNAESRVNRRQMPDNRVQCCLYFIAPSGHGLKPLDIEFMKRLHEKVNIIPLIAKADTLTPEECQQFKKQIMKEIQEHKIKIYEFPETDDEEENKLVKKIKDRLPLAVVGSNTIIEVNGKRVRGRQYPWGVAEVENGEHCDFTILRNMLIRTHMQDLKDVTNNVHYENYRSRKLAAVTYNGVDNNKNKGQLTKSPLAQMEEERREHVAKMKKMEMEMEQVFEMKVKEKVQKLKDSEAELQRRHEQMKKNLEAQHKELEEKRRQFEDEKANWEAQQRILEQQNSSRTLEKNKKKGKIF
Regarding B6, the binding result in assay [6] is given as “binds”.

B7: msfGFP-SEPT7Gmut1 (SEPT7 W269A, H279D) (protein, UniProt Q16181 1-437)
chain: MSVSARSAAAEERSVNSSTMVAQQKNLEGYVGFANLPNQVYRKSVKRGFEFTLMVVGESGLGKSTLINSLFLTDLYSPEYPGPSHRIKKTVQVEQSKVLIKEGGVQLLLTIVDTPGFGDAVDNSNCWQPVIDYIDSKFEDYLNAESRVNRRQMPDNRVQCCLYFIAPSGHGLKPLDIEFMKRLHEKVNIIPLIAKADTLTPEECQQFKKQIMKEIQEHKIKIYEFPETDDEEENKLVKKIKDRLPLAVVGSNTIIEVNGKRVRGRQYPAGVAEVENGEDCDFTILRNMLIRTHMQDLKDVTNNVHYENYRSRKLAAVTYNGVDNNKNKGQLTKSPLAQMEEERREHVAKMKKMEMEMEQVFEMKVKEKVQKLKDSEAELQRRHEQMKKNLEAQHKELEEKRRQFEDEKANWEAQQRILEQQNSSRTLEKNKKKGKIF
Regarding B7, the binding entry in assay [7] is “no binding”.
